No constants are given. Whether binding was seen depends on the method and setting. For some assays here: Binding can be weak; no strength is given. Tags and fused reporters may be left off the sequences shown. For some assays here: Binding seen in cells or lysates may run through a third protein.

This is an account of results in PMC11166463.

One assay addresses T1, GST–DPF3a (human) (UniProt Q92784).
T1 sequence: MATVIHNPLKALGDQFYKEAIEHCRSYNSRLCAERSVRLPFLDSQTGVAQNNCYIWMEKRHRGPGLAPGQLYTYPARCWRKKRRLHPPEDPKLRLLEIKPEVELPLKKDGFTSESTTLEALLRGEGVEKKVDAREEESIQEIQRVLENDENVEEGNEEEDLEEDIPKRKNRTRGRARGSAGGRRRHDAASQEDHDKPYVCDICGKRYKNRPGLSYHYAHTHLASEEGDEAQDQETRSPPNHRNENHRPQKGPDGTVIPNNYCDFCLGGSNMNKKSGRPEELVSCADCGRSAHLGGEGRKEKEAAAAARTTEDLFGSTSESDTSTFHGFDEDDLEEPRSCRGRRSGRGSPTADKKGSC
Nature of the assay: pull-down; GST recombinant proteins immobilised on glutathione-conjugated sepharose beads, incubated with lysates of mock or transfected U2OS cells at 4°C for 2 h, western blot; only the target purified. In general terms: A western blot detects proteins with antibodies after separation by electrophoresis.

The target of assay [1] is taxol-stabilized microtubules. Nature of the assay: co-sedimentation; pre-cleared GST–DPF3a or GST–DPF3b incubated with 2 µM taxol-stabilized microtubules for 30 min at room temperature, centrifuged at 100,000 g for 40 min, pellet and supernatant on SDS-PAGE with Coomassie blue staining; both purified.

In the case of “endogenous α-tubulin (U2OS cells) (human (endogenous in U2OS))”, in the assay with GST–DPF3a (human), the binding entry is “no binding”.

B1: GST–DPF3a (protein, UniProt Q92784-2 1-357)
chain: T1 sequence
Take B1: the binding result in assay [1] was “binds”.
